Article doi:10.1101/2022.06.22.497210
Like-named read-outs stand apart in the source and are kept apart here. No constants are given. Whether binding was seen depends on the method and setting. Binding seen in cells or lysates may run through a third protein. A yes stands for co-enrichment or nearness to the bait. Other partners may have been found.

The chains behind the UniProt entries cited, without tags or fusion partners. Where a name states a change or a piece, a line headed by the entry shows the natural chain unless it says otherwise.
UniProt O55242: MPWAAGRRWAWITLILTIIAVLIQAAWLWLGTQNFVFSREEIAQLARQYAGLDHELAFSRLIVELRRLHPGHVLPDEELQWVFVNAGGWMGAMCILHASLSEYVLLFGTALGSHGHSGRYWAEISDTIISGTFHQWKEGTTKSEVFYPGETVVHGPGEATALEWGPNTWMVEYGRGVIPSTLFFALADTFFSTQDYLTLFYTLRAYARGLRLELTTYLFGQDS

B1: Lman1 (protein, UniProt P49257 31-510)
chain: DGVGGDPAVALPHRRFEYKYSFKGPHLVQSDGTVPFWAHAGNAIPSSDQIRVAPSLKSQRGSVWTKTKAAFENWEVEVTFRVTGRGRIGADGLAIWYAENQGLEGPVFGSADLWNGVGIFFDSFDNDGKKNNPAIVIIGNNGQIHYDHQNDGASQALASCQRDFRNKPYPVRAKITYYQNTLTVMINNGFTPDKNDYEFCAKVENMIIPAQGHFGISAATGGLADDHDVLSFLTFQLTEPGKEPPTPDKEISEKEKEKYQEEFEHFQQELDKKKEEFQKGHPDLQGQPAEEIFESVGDRELRQVFEGQNRIHLEIKQLNRQLDMILDEQRRYVSSLTEEISKRGAGMPGQHGQITQQELDTVVKTQHEILRQVNEMKNSMSETVRLVSGMQHPGSAGGVYETTQHFIDIKEHLHIVKRDIDNLVQRNMPSNEKPKCPELPPFPSCLSTVHFIIFVVVQTVLFIGYIMYRSQQEAAAKKFF
B2: Squalene synthase (FDFT1) (enzyme, UniProt P37268 1-417)
chain: MEFVKCLGHPEEFYNLVRFRIGGKRKVMPKMDQDSLSSSLKTCYKYLNQTSRSFAAVIQALDGEMRNAVCIFYLVLRALDTLEDDMTISVEKKVPLLHNFHSFLYQPDWRFMESKEKDRQVLEDFPTISLEFRNLAEKYQTVIADICRRMGIGMAEFLDKHVTSEQEWDKYCHYVAGLVGIGLSRLFSASEFEDPLVGEDTERANSMGLFLQKTNIIRDYLEDQQGGREFWPQEVWSRYVKKLGDFAKPENIDLAVQCLNELITNALHHIPDVITYLSRLRNQSVFNFCAIPQVMAIATLAACYNNQQVFKGAVKIRKGQAVTLMMDATNMPAVKAIIYQYMEEIYHRIPDSDPSSSKTRQIISTIRTQNLPNCQLISRSHYSPIYLSFVMLLAALSWQYLTTLSQVTEDYVQTGEH
B3: glycyl-tRNA-synthetase (GARS) (enzyme, UniProt P41250 37-739)
chain: SAASCPPISLPAAASRSSMDGAGAEEVLAPLRLAVRQQGDLVRKLKEDKAPQVDVDKAVAELKARKRVLEAKELALQPKDDIVDRAKMEDTLKRRFFYDQAFAIYGGVSGLYDFGPVGCALKNNIIQTWRQHFIQEEQILEIDCTMLTPEPVLKTSGHVDKFADFMVKDVKNGECFRADHLLKAHLQKLMSDKKCSVEKKSEMESVLAQLDNYGQQELADLFVNYNVKSPITGNDLSPPVSFNLMFKTFIGPGGNMPGYLRPETAQGIFLNFKRLLEFNQGKLPFAAAQIGNSFRNEISPRSGLIRVREFTMAEIEHFVDPSEKDHPKFQNVADLHLYLYSAKAQVSGQSARKMRLGDAVEQGVINNTVLGYFIGRIYLYLTKVGISPDKLRFRQHMENEMAHYACDCWDAESKTSYGWIEIVGCADRSCYDLSCHARATKVPLVAEKPLKEPKTVNVVQFEPSKGAIGKAYKKDAKLVMEYLAICDECYITEMEMLLNEKGEFTIETEGKTFQLTKDMINVKRFQKTLYVEEVVPNVIEPSFGLGRIMYTVFEHTFHVREGDEQRTFFSFPAVVAPFKCSVLPLSQNQEFMPFVKELSEALTRHGVSHKVDDSSGSIGRRYARTDEIGVAFGVTIDFDTVNKTPHTATLRDRDSMRQIRAEISELPSIVQDLANGNITWADVEARYPLFEGQETGKKETIEE
B4: EFEMP1 (printed as a Fibulin) (protein, UniProt Q12805 18-493)
chain: QDTEETITYTQCTDGYEWDPVRQQCKDIDECDIVPDACKGGMKCVNHYGGYLCLPKTAQIIVNNEQPQQETQPAEGTSGATTGVVAASSMATSGVLPGGGFVASAAAVAGPEMQTGRNNFVIRRNPADPQRIPSNPSHRIQCAAGYEQSEHNVCQDIDECTAGTHNCRADQVCINLRGSFACQCPPGYQKRGEQCVDIDECTIPPYCHQRCVNTPGSFYCQCSPGFQLAANNYTCVDINECDASNQCAQQCYNILGSFICQCNQGYELSSDRLNCEDIDECRTSSYLCQYQCVNEPGKFSCMCPQGYQVVRSRTCQDINECETTNECREDEMCWNYHGGFRCYPRNPCQDPYILTPENRCVCPVSNAMCRELPQSIVYKYMSIRSDRSVPSDIFQIQATTIYANTINTFRIKSGNENGEFYLRQTSPVSAMLVLVKSLSGPREHIVDLEMLTVSSIGTFRTSSVLRLTIIVGPFSF

Experiments:
[1] = biological target: S1R-Apex (mouse Sigma 1 Receptor with V5-Apex2 fused to the C terminus) (mouse) (UniProt O55242); assay: proximity labelling
[2] = biological target: S1R-Apex (mouse Sigma 1 Receptor with V5-Apex2 fused to the C terminus) (mouse) (UniProt O55242); assay: proximity labelling; remark: listed apart in the source

| Binder | binding [1] | binding [2] |
| --- | --- | --- |
| B1 | binds | binds |
| B2 | – | binds |
| B3 | – | binds |
| B4 | – | binds |
